Data taken from the supplement of paper PMC10849652.
Some of the results follow.

The chains behind the UniProt entries cited, without tags or fusion partners. Where a name states a change or a piece, a line headed by the entry shows the natural chain unless it says otherwise.
UniProt O00159, whole entry, looked up: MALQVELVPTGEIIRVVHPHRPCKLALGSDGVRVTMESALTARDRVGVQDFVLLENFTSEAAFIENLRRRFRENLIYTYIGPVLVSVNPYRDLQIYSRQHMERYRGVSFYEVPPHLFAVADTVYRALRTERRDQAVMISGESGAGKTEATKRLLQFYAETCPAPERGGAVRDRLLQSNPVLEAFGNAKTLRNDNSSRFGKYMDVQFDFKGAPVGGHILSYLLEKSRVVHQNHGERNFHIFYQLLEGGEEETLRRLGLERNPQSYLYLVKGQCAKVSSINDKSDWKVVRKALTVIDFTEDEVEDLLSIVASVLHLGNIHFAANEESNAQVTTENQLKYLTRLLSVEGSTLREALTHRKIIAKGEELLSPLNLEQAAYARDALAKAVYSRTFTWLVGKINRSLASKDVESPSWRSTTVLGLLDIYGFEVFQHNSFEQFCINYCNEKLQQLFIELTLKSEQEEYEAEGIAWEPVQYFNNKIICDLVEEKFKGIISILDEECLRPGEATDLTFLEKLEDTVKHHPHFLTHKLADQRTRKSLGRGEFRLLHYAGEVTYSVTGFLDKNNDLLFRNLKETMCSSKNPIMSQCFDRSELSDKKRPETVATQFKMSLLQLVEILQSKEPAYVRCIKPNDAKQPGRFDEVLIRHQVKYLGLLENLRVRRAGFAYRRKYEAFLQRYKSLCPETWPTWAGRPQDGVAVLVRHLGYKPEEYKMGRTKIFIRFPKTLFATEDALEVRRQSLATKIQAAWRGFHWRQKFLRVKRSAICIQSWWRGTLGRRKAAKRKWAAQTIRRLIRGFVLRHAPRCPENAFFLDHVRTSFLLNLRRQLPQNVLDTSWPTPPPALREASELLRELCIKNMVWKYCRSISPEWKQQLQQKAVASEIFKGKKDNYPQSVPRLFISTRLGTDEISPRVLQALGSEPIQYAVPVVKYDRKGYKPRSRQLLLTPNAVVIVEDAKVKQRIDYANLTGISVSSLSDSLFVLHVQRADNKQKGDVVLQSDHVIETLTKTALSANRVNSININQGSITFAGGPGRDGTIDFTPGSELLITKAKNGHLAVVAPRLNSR
UniProt P03915, whole entry, looked up: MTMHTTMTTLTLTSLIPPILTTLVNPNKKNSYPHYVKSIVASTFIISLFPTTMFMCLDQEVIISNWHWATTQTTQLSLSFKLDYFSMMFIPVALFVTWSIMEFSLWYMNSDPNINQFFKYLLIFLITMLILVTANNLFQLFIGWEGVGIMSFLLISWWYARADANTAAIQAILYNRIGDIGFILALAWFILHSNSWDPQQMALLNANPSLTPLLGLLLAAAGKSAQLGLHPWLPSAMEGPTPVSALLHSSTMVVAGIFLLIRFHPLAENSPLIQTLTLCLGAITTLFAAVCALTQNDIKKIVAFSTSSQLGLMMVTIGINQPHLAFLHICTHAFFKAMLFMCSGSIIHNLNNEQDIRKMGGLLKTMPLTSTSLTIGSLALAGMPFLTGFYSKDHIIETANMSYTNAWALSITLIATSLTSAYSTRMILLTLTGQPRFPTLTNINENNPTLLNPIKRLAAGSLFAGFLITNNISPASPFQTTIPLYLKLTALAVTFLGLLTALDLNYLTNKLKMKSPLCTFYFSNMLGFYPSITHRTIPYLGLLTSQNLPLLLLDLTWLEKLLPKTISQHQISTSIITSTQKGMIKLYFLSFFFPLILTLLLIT
UniProt Q9UBK8: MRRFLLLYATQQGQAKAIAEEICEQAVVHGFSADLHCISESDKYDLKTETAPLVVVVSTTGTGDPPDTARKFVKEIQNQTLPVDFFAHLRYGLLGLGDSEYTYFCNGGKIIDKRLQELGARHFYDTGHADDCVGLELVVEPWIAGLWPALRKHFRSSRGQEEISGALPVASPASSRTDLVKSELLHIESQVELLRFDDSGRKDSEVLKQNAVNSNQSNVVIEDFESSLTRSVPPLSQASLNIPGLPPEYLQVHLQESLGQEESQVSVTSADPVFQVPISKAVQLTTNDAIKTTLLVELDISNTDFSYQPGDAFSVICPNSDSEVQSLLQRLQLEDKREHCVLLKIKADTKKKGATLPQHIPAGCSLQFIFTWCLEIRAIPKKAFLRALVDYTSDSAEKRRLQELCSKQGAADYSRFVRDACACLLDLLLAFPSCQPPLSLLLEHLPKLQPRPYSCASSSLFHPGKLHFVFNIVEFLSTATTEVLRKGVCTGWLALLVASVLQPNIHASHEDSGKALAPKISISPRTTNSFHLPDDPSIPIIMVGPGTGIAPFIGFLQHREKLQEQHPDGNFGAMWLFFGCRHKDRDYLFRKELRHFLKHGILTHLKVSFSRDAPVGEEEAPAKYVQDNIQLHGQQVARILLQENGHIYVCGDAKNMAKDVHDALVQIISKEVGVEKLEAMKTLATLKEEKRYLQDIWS
UniProt P26038, whole entry, looked up: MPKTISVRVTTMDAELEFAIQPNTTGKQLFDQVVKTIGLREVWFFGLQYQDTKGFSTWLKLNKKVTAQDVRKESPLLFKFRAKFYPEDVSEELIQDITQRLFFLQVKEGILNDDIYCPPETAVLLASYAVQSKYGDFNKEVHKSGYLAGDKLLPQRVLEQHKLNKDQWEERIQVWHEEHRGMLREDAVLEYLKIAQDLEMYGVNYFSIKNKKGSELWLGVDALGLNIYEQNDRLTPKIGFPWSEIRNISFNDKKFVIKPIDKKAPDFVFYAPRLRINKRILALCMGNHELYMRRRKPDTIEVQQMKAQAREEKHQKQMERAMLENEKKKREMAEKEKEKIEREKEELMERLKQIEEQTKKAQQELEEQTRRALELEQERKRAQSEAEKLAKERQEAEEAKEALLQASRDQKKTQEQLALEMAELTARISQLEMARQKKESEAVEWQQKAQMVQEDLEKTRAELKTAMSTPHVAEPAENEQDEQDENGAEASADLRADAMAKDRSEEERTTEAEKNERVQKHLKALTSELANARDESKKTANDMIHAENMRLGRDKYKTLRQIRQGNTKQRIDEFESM
UniProt Q99417: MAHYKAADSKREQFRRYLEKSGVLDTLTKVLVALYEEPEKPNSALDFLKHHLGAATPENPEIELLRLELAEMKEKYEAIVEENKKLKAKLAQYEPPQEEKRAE
UniProt Q969V6: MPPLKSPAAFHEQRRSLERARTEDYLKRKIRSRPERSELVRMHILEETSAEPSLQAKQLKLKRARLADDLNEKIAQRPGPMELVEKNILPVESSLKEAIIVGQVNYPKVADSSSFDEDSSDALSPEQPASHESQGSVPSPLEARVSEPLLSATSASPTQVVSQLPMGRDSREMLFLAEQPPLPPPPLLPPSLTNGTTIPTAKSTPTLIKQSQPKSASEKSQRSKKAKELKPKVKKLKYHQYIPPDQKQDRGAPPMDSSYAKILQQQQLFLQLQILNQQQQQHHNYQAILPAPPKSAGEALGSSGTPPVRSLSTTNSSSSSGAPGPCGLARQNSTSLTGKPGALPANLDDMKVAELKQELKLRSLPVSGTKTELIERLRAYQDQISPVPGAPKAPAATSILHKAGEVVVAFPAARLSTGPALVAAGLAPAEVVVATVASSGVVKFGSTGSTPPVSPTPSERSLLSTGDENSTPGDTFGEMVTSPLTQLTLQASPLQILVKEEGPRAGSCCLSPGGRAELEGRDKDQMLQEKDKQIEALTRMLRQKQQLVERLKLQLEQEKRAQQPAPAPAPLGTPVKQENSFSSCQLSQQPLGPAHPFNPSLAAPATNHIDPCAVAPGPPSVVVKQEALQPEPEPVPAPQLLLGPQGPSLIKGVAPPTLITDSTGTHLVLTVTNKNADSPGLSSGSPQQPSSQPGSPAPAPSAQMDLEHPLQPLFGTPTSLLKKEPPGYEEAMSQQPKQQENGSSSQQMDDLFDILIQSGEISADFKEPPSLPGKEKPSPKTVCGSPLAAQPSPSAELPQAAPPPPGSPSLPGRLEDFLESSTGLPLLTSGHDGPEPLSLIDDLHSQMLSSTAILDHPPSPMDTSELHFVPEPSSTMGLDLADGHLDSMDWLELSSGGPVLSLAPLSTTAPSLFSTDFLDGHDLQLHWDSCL
UniProt O75431: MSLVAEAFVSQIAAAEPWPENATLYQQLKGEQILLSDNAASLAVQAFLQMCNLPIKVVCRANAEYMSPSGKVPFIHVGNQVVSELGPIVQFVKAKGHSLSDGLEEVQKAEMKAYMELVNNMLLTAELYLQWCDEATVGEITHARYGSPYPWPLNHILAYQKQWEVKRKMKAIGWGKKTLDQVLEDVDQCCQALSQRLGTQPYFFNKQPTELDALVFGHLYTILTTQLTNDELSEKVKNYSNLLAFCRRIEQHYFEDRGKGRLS
UniProt Q9NZJ7, whole entry, looked up: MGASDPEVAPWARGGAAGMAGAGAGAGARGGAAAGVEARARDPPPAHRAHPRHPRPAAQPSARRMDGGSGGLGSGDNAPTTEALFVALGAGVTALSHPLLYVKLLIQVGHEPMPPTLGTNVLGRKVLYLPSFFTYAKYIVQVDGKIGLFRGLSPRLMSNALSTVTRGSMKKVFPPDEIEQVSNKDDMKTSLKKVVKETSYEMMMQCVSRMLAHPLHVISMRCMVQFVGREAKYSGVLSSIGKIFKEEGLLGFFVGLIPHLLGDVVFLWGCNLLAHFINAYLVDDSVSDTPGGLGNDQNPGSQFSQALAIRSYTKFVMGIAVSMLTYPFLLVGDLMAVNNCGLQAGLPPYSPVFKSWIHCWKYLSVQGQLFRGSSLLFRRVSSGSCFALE
UniProt P03905, whole entry, looked up: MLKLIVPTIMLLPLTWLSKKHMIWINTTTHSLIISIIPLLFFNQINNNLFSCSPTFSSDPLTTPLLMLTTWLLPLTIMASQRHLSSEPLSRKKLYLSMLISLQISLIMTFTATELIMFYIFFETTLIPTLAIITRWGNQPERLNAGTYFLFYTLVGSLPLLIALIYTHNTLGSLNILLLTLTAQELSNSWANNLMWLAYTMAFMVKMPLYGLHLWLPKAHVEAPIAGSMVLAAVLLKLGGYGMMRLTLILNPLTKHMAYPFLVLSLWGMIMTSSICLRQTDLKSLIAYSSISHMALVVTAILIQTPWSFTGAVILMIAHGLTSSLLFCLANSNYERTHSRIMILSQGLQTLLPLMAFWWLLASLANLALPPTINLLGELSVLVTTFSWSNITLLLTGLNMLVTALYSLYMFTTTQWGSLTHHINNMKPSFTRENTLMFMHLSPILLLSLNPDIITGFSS
UniProt Q9HD23: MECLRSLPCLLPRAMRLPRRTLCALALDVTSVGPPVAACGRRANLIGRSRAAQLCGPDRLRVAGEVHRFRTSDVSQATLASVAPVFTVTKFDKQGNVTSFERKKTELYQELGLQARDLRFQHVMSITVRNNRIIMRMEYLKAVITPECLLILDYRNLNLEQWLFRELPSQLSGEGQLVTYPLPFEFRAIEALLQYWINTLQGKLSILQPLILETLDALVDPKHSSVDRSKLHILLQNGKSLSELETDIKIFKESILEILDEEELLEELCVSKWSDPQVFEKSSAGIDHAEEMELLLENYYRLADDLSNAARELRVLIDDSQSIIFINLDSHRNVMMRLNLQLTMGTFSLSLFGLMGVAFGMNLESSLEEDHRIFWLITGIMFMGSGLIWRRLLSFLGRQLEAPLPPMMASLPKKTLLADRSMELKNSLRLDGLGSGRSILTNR
UniProt Q03426, whole entry, looked up: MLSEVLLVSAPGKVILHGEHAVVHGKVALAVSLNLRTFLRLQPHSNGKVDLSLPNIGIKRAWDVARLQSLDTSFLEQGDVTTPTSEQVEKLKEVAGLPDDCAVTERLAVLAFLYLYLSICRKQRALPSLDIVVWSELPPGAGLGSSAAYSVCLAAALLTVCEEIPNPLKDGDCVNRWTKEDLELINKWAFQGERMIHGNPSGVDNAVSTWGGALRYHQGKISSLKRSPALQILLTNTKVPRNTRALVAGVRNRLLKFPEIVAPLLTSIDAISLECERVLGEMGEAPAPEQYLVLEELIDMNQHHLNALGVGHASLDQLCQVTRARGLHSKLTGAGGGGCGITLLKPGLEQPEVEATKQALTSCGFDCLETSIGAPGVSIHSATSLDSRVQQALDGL
UniProt O94776: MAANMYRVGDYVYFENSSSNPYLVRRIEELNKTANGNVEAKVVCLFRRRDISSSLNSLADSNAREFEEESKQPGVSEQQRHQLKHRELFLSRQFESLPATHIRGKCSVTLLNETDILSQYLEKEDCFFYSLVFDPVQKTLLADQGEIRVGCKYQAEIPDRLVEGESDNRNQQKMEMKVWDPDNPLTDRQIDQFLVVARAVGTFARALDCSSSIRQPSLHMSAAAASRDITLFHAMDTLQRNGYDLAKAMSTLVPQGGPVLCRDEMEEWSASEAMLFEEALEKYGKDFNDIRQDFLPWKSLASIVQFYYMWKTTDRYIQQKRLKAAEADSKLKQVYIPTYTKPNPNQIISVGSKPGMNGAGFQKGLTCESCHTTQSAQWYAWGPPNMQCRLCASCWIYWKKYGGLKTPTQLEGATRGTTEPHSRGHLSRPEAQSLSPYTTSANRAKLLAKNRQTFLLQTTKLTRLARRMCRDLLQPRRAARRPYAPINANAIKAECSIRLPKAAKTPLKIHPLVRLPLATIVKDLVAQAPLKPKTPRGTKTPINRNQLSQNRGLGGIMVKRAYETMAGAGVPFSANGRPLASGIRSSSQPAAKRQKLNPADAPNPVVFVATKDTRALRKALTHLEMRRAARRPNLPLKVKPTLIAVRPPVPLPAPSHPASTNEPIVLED

Experiments:
Assay in all cases: log2 fold change, soluble protein after heating vs DMSO (PISA); higher = thermal stabilisation; K562 cells, 10 uM, 30 min; active = over 0.2 and 3.5 SD of the protein, either way, in both replicates (recomputed)
[1] = compound: COC1=CC=C(C=C1)CN2C=CC3=C2C=C(C=C3)C(=O)NO
Summary of the method: (§1)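 Soluble protein was quantified by TMTpro 16plex LC-MS/MS after channel sums were equalised. It was obtained as the supernatant after 21,000xg for 90 min from pooled aliquots of K562 cells (2×10^6 cells/mL, 10 μM compound, 30 min) heated for 3 min across 48°C-58°C and extracted in PBS with 0.5% NP-40 at 4°C. Thermal stability values are relative to control samples and come from duplicates. They are given as log2 fold changes.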

[2] = compound: CON(C)C(=O)N1N=C(c2cc(F)ccc2F)S[C@@]1(CCCN)c1ccccc1 [filanesib]
Summary of the method: as §1

[3] = compound: CO[C@H]1C[C@@H]2CC[C@@H](C)[C@@](O)(O2)C(=O)C(=O)N2CCCC[C@H]2C(=O)O[C@H]([C@H](C)C[C@@H]2CC[C@H](n3cnnn3)[C@H](OC)C2)CC(=O)[C@H](C)/C=C(\C)[C@@H](O)[C@@H](OC)C(=O)[C@H](C)C[C@H](C)/C=C/C=C/C=C/1C [zotarolimus]
Summary of the method: as §1

[4] = compound: COc1cc(C(=O)O)ccc1NC(=O)[C@@H]1N[C@@H](CC(C)(C)C)[C@](C#N)(c2ccc(Cl)cc2F)[C@H]1c1cccc(Cl)c1F [idasanutlin]
Summary of the method: as §1

[5] = compound: COc1cc(Nc2ncc3c(n2)-c2ccc(Cl)cc2C(c2c(F)cccc2OC)=NC3)ccc1C(=O)O [alisertib]
Summary of the method: as §1

[6] = compound: COc1cc2nc(-c3cc(F)ccc3O)nc(N[C@@H]3CNC[C@H]3C(C)(C)O)c2cc1OC
Summary of the method: as §1

[7] = compound: COc1cc2ncnc(Nc3ccc(F)c(Cl)c3)c2cc1OCCCN1CCOCC1 [gefitinib]
Summary of the method: as §1

[8] = compound: COc1cccc2cc(-c3nc([C@H]4CC[C@H](C(=O)O)CC4)n4ncnc(N)c34)[nH]c12
Summary of the method: as §1

[9] = compound: CS(=O)(=O)CCNCc1ccc(-c2ccc3ncnc(Nc4ccc(OCc5cccc(F)c5)c(Cl)c4)c3c2)o1 [lapatinib]
Summary of the method: as §1

[10] = compound: CS(=O)(=O)N1CCN(Cc2cc3nc(-c4cccc5[nH]ncc45)nc(N4CCOCC4)c3s2)CC1 [pictilisib]
Summary of the method: as §1

[11] = compound: CS(=O)(=O)c1ccc(-c2cnc(N)c(C(=O)Nc3ccccc3)n2)cc1
Summary of the method: as §1

[12] = compound: C[C@@H](Oc1cc(-c2cnn(C3CCNCC3)c2)cnc1N)c1c(Cl)ccc(F)c1Cl [crizotinib]
Summary of the method: as §1

[13] = compound: C[C@@H]1COCCN1C2=NC(=NC(=C2)C3(CC3)S(=O)(=O)C)C4=C5C=CNC5=CC=C4
Summary of the method: as §1

[14] = compound: C[C@H](C1=CC=C(C=C1)C(=O)NC2=C3C=CNC3=NC=C2)N
Summary of the method: as §1

[15] = compound: C[C@H](Nc1ncnc2nc[nH]c12)c1cc2cccc(Cl)c2c(=O)n1-c1ccccc1 [duvelisib]
Summary of the method: as §1

[16] = compound: Cc1cc(Nc2cc(CN3CCOCC3)c3nc(C)c(Cc4ccc(Cl)cc4F)n3n2)n[nH]1 [gandotinib]
Summary of the method: as §1

[17] = compound: Cc1cc(Nc2cc(N3CCN(C)CC3)nc(Sc3ccc(NC(=O)C4CC4)cc3)n2)n[nH]1 [tozasertib]
Summary of the method: as §1

[18] = compound: Cc1cc(SCc2sc(-c3ccc(C(F)(F)F)cc3)nc2C)ccc1OCC(=O)O
Summary of the method: as §1

[19] = compound: Cc1ccc(-n2nc(C(C)(C)C)cc2NC(=O)Nc2ccc(OCCN3CCOCC3)c3ccccc23)cc1 [doramapimod]
Summary of the method: as §1

[20] = compound: Cc1ccc(C(=O)N(CCCN)[C@@H](c2nc3cc(Cl)ccc3c(=O)n2Cc2ccccc2)C(C)C)cc1 [ispinesib]
Summary of the method: as §1

Target	log2 fold change [1]	log2 fold change [2]	log2 fold change [3]	log2 fold change [4]	log2 fold change [5]	log2 fold change [6]	log2 fold change [7]	log2 fold change [8]	log2 fold change [9]	log2 fold change [10]	log2 fold change [11]	log2 fold change [12]	log2 fold change [13]	log2 fold change [14]	log2 fold change [15]	log2 fold change [16]	log2 fold change [17]	log2 fold change [18]	log2 fold change [19]	log2 fold change [20]
MYO1C (UniProt O00159)	inactive: 0.138	inactive: 0.174	inactive: 0.086	inactive: 0.045	inactive: -0.009	inactive: -0.05	inactive: 0.001	inactive: -0.128	inactive: -0.062	inactive: -0.007	inactive: 0.152	inactive: -0.324	inactive: -0.082	inactive: 0.312	inactive: -0.066	inactive: -0.113	inactive: -0.092	inactive: 0.136	inactive: -0.088	inactive: -0.423
MT-ND5 (UniProt P03915)	inactive: -0.014	inactive: -0.12	inactive: 0.022	inactive: 0	inactive: 0	inactive: 0.102	inactive: -0.007	inactive: 0	inactive: 0.015	inactive: -0.142	inactive: 0.002	inactive: -0.061	inactive: 0.039	inactive: 0.009	inactive: 0.022	inactive: -0.182	inactive: -0.013	inactive: -0.09	inactive: 0.043	inactive: -0.026
MTRR isoform 1 (UniProt Q9UBK8)	inactive: 0.04	inactive: 0.043	inactive: 0.031	inactive: -0.025	inactive: -0.047	inactive: 0.044	inactive: -0.014	inactive: -0.025	inactive: -0.023	inactive: 0.016	inactive: 0.031	inactive: 0.021	inactive: 0.099	inactive: 0.009	inactive: 0.109	inactive: 0.022	inactive: -0.011	inactive: 0.059	inactive: 0.038	inactive: -0.184
MTHFD1L (UniProt Q6UB35)	inactive: 0.021	inactive: -0.001	inactive: 0.023	inactive: -0.15	inactive: -0.071	inactive: 0.044	inactive: 0.03	inactive: 0.018	inactive: -0.006	inactive: 0.055	inactive: 0.023	inactive: -0.015	inactive: 0.128	inactive: -0.025	inactive: 0.082	inactive: -0.027	inactive: -0.044	inactive: 0.04	inactive: -0.011	inactive: 0.031
MSN (UniProt P26038)	inactive: 0.068	inactive: -0.032	inactive: 0.03	inactive: -0.022	inactive: -0.078	inactive: 0.022	inactive: 0.006	inactive: -0.048	inactive: -0.01	inactive: -0.028	inactive: -0.015	inactive: 0.049	inactive: 0.037	inactive: -0.06	inactive: -0.006	inactive: -0.028	inactive: 0.027	inactive: 0.003	inactive: -0.001	inactive: 0.081
MYCBP (UniProt Q99417)	inactive: -0.058	inactive: -0.013	inactive: -0.044	inactive: 0.088	inactive: -0.069	inactive: 0.037	inactive: 0.032	inactive: 0.024	inactive: -0.035	inactive: 0.073	inactive: -0.002	inactive: 0.096	inactive: 0.07	inactive: -0.022	inactive: 0.04	inactive: 0.028	inactive: -0.006	inactive: -0.049	inactive: -0.021	inactive: -0.066
MRTFA (UniProt Q969V6)	inactive: 0.149	inactive: -0.084	inactive: 0.012	inactive: 0.165	inactive: 0.025	inactive: 0.064	inactive: -0.004	inactive: 0.015	inactive: -0.006	inactive: 0.06	inactive: 0.046	inactive: -0.203	inactive: 0.103	inactive: -0.006	inactive: 0.06	inactive: 0.021	inactive: 0.064	inactive: 0.033	inactive: 0.017	inactive: 0.084
MTX2 (UniProt O75431)	inactive: -0.016	inactive: -0.05	inactive: 0.062	inactive: -0.007	inactive: -0.009	inactive: 0.118	inactive: 0.038	inactive: 0.058	inactive: -0.002	inactive: 0.106	inactive: 0.08	inactive: -0.025	inactive: 0.02	inactive: -0.011	inactive: 0.075	inactive: 0	inactive: 0	inactive: 0.085	inactive: 0.022	inactive: 0.045
MTOR (UniProt P42345)	inactive: 0.002	inactive: -0.112	active: -0.308	inactive: -0.09	inactive: -0.017	inactive: -0.012	inactive: -0.018	inactive: -0.019	inactive: 0.014	inactive: 0.019	inactive: 0.003	inactive: -0.23	inactive: 0.08	inactive: 0.06		inactive: -0.138		inactive: 0.024	inactive: 0.001	inactive: -0.184
MYH11 isoform 2 (UniProt P35749)	inactive: 0.027	inactive: -0.002	inactive: 0.022	inactive: -0.045	inactive: 0.033	inactive: 0.067	inactive: 0.025	inactive: -0.033	inactive: 0.018	inactive: -0.035	inactive: -0.026	inactive: -0.025	inactive: 0.01	inactive: -0.078		inactive: 0.014		inactive: 0.009	inactive: 0.057	inactive: -0.012
MTCH1 (UniProt Q9NZJ7)	inactive: -0.007	inactive: -0.082	inactive: 0.142	inactive: -0.075	inactive: -0.024	inactive: 0.056	inactive: 0.051	inactive: 0.033	inactive: 0.077	inactive: 0.055	inactive: 0.012	inactive: 0.115	inactive: 0.042	inactive: -0.045	inactive: -0.025	inactive: -0.066	inactive: -0.006	inactive: -0.006	inactive: 0.063	inactive: 0.026
MT-ND4 (UniProt P03905)	inactive: -0.021	inactive: -0.009	inactive: -0.069	inactive: -0.147	inactive: -0.02	inactive: -0.088	inactive: 0.003	inactive: 0.046	inactive: 0.013	inactive: -0.214	inactive: -0.107	inactive: 0.008	inactive: 0.052	inactive: -0.148		inactive: -0.104		inactive: -0.066	inactive: 0	inactive: 0.118
MYL12B (UniProt O14950)	inactive: -0.008	inactive: -0.052	inactive: 0.111	inactive: -0.064	inactive: -0.06	inactive: 0.022	inactive: -0.001	inactive: -0.018	inactive: 0.047	inactive: -0.015	inactive: -0.016	inactive: -0.004	inactive: 0.019	active: -0.32		inactive: 0.058		inactive: -0.003	inactive: 0.025	inactive: 0.097
MRS2 (UniProt Q9HD23)	inactive: -0.014	inactive: -0.106	inactive: -0.045	inactive: 0.01	inactive: -0.06	inactive: -0.075	inactive: -0.006	inactive: 0.041	inactive: 0.048	inactive: -0.002	inactive: 0.006	inactive: 0.001	inactive: 0.002	inactive: 0.03	inactive: 0.031	inactive: -0.076	inactive: -0.003	inactive: -0.018	inactive: -0.001	inactive: 0.088
MVK (UniProt Q03426)	inactive: -0.02	inactive: 0.008	inactive: -0.025	inactive: 0.057	inactive: -0.025	inactive: 0.002	inactive: 0.02	inactive: 0.049	inactive: -0.012	inactive: 0.027	inactive: 0.008	inactive: 0.038	inactive: 0.026	inactive: -0.028	inactive: 0.04	inactive: -0.069	inactive: -0.002	inactive: -0.001	inactive: 0.007	inactive: 0.029
MTA2 (UniProt O94776)	inactive: 0.095	inactive: 0.02	inactive: 0.057	inactive: 0.005	inactive: -0.034	inactive: -0.024	inactive: 0.014	inactive: -0.114	inactive: 0.029	inactive: -0.008	inactive: -0.027	inactive: -0.052	inactive: 0.098	inactive: 0.022	inactive: 0	inactive: 0.03	inactive: 0.108	inactive: 0.097	inactive: -0.015	inactive: -0.057

Single records, as listed above. Values in the order: log2 fold change [1]	log2 fold change [2]	log2 fold change [3]	log2 fold change [4]	log2 fold change [5]	log2 fold change [6]	log2 fold change [7]	log2 fold change [8]	log2 fold change [9]	log2 fold change [10]	log2 fold change [11]	log2 fold change [12]	log2 fold change [13]	log2 fold change [14]	log2 fold change [15]	log2 fold change [16]	log2 fold change [17]	log2 fold change [18]	log2 fold change [19]	log2 fold change [20]
MTHFD1L (UniProt Q6UB35) is entered as inactive: 0.021	inactive: -0.001	inactive: 0.023	inactive: -0.15	inactive: -0.071	inactive: 0.044	inactive: 0.03	inactive: 0.018	inactive: -0.006	inactive: 0.055	inactive: 0.023	inactive: -0.015	inactive: 0.128	inactive: -0.025	inactive: 0.082	inactive: -0.027	inactive: -0.044	inactive: 0.04	inactive: -0.011	inactive: 0.031
MRS2 (UniProt Q9HD23) is entered as inactive: -0.014	inactive: -0.106	inactive: -0.045	inactive: 0.01	inactive: -0.06	inactive: -0.075	inactive: -0.006	inactive: 0.041	inactive: 0.048	inactive: -0.002	inactive: 0.006	inactive: 0.001	inactive: 0.002	inactive: 0.03	inactive: 0.031	inactive: -0.076	inactive: -0.003	inactive: -0.018	inactive: -0.001	inactive: 0.088
